37 compounds from PubChem BioAssay AID2685 (National Center for Advancing Translational Sciences (NCATS), 2010) can be followed below.

The nature of the experiment: qHTS Assay for Lipid Storage Modulators in Drosophila S3 Cells.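 As to cell number change: cells counted by Cell Tracker Red CMTPX staining in the red channel.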 To be noted: BODIPY lipid droplet fluorescence, 18-24 h; for cell number change: measured here: cell count max response, cells fed with added oleic acid. In short, it runs like this:
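Drosophila S3 cells loaded with oleic acid (400 uM, as added) and compounds at several concentrations; lipid droplets imaged by 488-nm laser-scanning cytometry, 500–530 nm intensity and object ratio to cell channel. Percent activity normalized to 20 uM Triacsin C.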
(In general: In qHTS, concentration-response curves come from the screen itself.)

Setting [1] is: measured here: lipid fluorescence (Fed channel) AC50, cells fed with added oleic acid.
[2] abbreviates: measured here: cell number channel AC50, cells fed with added oleic acid.

This is one part of the list. Further columns of the screen follow, without active or inactive calls. The list favours compounds with an active or inconclusive main result. The note in brackets gives the kind of curve behind each potency; many fits are weak.

Regarding `COc1ccc(/C=C/C(=O)Nc2ccc(N3CCOCC3)cc2)cc1`, the cell number change is 0.439%. Besides, the half-maximal activity concentration (AC50) under setting [1] is 32.6 µM [falling, single point].

On to `C(=N\Nc1ccc2ccccc2n1)/c1ccc2c(c1)OCO2`, for which the cell number change was 1.1%.

As to `COCCCNC(=O)CN1CCN(Cc2ccc(Cl)cc2)C1=O`, the cell number change was -13.4%. Further, the half-maximal activity concentration (AC50) under setting [1] was 0.164 µM [falling, full curve, poor fit].

Regarding `O=C(Nc1sc2c(c1-c1nc3ccccc3[nH]1)CCCC2)C1CC1`, the cell number change was -22.8%. Further, the concentration at half-maximal activity (AC50) under setting [1] is 2.06 µM [rising, partial curve].

On to `O=S(=O)(NCC1CN(S(=O)(=O)c2c(F)cccc2F)C1)c1ccc2c(c1)OCCO2`, for which the cell number change is -37.3%. Moreover, the AC50 under setting [2] is 16.4 µM [falling, partial curve]. Further, under setting [1], the AC50 was 18.4 µM [falling, partial curve].

For `O=C(O)C1CC=CCC1C(=O)N1CCN(c2nc(-c3ccccc3Cl)c3cc(Br)ccc3n2)CC1` (stereo not drawn), the cell number change is -11.6%. Under setting [1], the AC50 was 2.91 µM [rising, single point].

Take `COc1ccccc1-c1cc(-c2ccc(C)cc2)nc(SCc2nnc(-c3ccccc3)o2)c1C#N`: the concentration at half-maximal activity (AC50) under setting [2] was 0.184 µM [rising, full curve, poor fit] and the AC50 under setting [1] is 0.731 µM [rising, full curve].

As for `CC(C)(O)C1=NOC(c2ccccc2)C1` (stereo not drawn), the cell number change was -61.1%. Also, under setting [2], the concentration at half-maximal activity (AC50) was 16.4 µM [falling, single point]. For the same compound, the AC50 under setting [1] is 29.1 µM [falling, single point].

For `COc1ccc(-c2csc3ncnc(N4CCN(S(=O)(=O)c5cccs5)CC4)c23)cc1`, the cell number change was -6.83%.

For the compound `c1ccc(CNc2nc(-c3cccs3)nc3ccccc23)cc1`, the cell number change worked out at 54%. Besides, the AC50 under setting [2] was 18.4 µM [rising, partial curve, poor fit]. Moreover, the AC50 under setting [1] is 29.1 µM [rising, single point].

For `CCCC(=O)NC(c1ccccc1)c1c(O)ccc2ccccc12` (stereo not drawn), the cell number change was -12%.

`COc1ccc(OC)c(S(=O)(=O)N2CCCC2C(=O)N2CCc3ccccc3C2)c1` (stereo not drawn): the cell number change is -7.89%. Further, the half-maximal activity concentration (AC50) under setting [1] was 0.562 µM [falling, full curve].

Turning to `Cc1onc(-c2ccccc2)c1-c1csc(N/N=C/c2ccccc2Cl)n1`, the cell number change is 37.8%. Moreover, the AC50 under setting [2] was 29.1 µM [rising, single point]. Further, under setting [1], the AC50 was 29.1 µM [rising, single point].

With `CC1(C)Cc2c(sc(NC(=O)Cc3ccccc3)c2C#N)CO1`, the cell number change is 29.2%. Under setting [1], the concentration at half-maximal activity (AC50) is 29.1 µM [rising, single point].

For `COc1ccc(S(=O)(=O)Nc2c(C)nc3nc(C)[nH]n3c2=O)cc1`, under setting [2], the AC50 was 6.51 µM [rising, partial curve, poor fit].

On to `CC(C)CCOc1ccccc1C(N)=O`, for which the cell number change is 83.4%. In addition, the concentration at half-maximal activity (AC50) under setting [2] was 29.1 µM [rising, single point].

As to `CSc1ccccc1NC(=O)COc1ccc(Cl)cc1`, the cell number change was 86%. The half-maximal activity concentration (AC50) under setting [1] is 4.11 µM [falling, partial curve, poor fit].

Consider `COc1ccccc1N1CCN(/N=C/c2cc(OC)c(O)c(OC)c2)CC1`, for which the cell number change came out at 4.44%. Moreover, under setting [1], the AC50 was 1.64 µM [rising, partial curve, poor fit].

In the case of `Cc1c(CC(=O)N[C@@H](C)C(=O)O)c(=O)oc2cc3c(cc12)CCC(C)(C)O3`, the cell number change is -19.1%.

On to `COc1cc(/C=C2\SC(=S)N(NS(=O)(=O)c3ccc(C)cc3)C2=O)ccc1O`, for which the cell number change was -99.1%. In addition, under setting [2], the concentration at half-maximal activity (AC50) was 29.1 µM [falling, single point]. Under setting [1], the concentration at half-maximal activity (AC50) was 20.6 µM [falling, partial curve].

Turning to `Cc1ccc(S(=O)(=O)N2CCOCC2)cc1C(=O)NNC(=O)c1ccoc1C`, the cell number change was determined as 24.4%. For the same compound, the AC50 under setting [1] was 0.651 µM [rising, single point].

Turning to `COc1ccc(NC(=S)NC(=O)Cc2ccccc2)c(OC)c1`, the cell number change was 15.3%. In addition, under setting [1], the AC50 was 0.146 µM [rising, full curve].

As to `CCOc1ccccc1NC(=S)NC(=O)C1CCCCC1`, the cell number change was found to be 12.5%. Also, the concentration at half-maximal activity (AC50) under setting [1] was 11.2 µM [rising, partial curve].

`COc1cc(-c2nnc(COC(=O)CSCC(=O)Nc3cc(C)on3)o2)cc(OC)c1OC`: the cell number change was -7.48%. The AC50 under setting [1] was 29.1 µM [rising, single point].

For `CC(/C=N/NC(=O)c1cccs1)=C\c1ccco1`, the cell number change was -13%.

Take `COc1ccc(C(=O)Oc2cccnc2)cc1`: the AC50 under setting [1] was 16.4 µM [falling, single point].

Turning to `COc1c(Cl)cc(Cl)cc1CNCc1ccccc1`, the cell number change came out at 69.7%. For the same compound, the half-maximal activity concentration (AC50) under setting [2] is 4.61 µM [falling, single point]. In addition, the AC50 under setting [1] was 4.61 µM [falling, single point].

Take `COc1ccc(-c2cccc(C(=O)NCC(=O)O)c2)cc1`: the cell number change is 30.6%. The half-maximal activity concentration (AC50) under setting [2] was 0.164 µM [rising, full curve, poor fit]. Also, the AC50 under setting [1] is 29.1 µM [falling, single point].

On to `Cc1cccc(-[n+]2c(C)cc(C)c3c(=O)[nH]c(=O)[nH]c32)c1`, for which the cell number change was found to be 3.08%. Further, the AC50 under setting [1] is 0.146 µM [rising, full curve, poor fit].

In the case of `COc1ccc(CN=Cc2c(O)[nH]c3ccccc23)cc1`, the cell number change is 76.3%. Moreover, the AC50 under setting [2] is 0.411 µM [rising, full curve]. For the same compound, the AC50 under setting [1] is 16.4 µM [rising, partial curve].

Take `Cc1nc(CN(C)C(=O)c2cc(COc3ccc4ncccc4c3)on2)cs1`: the cell number change is -47.9%. Further, the AC50 under setting [2] was 8.2 µM [falling, partial curve]. The AC50 under setting [1] is 9.2 µM [falling, partial curve].

`CCCCN(C)CCNC(=O)CCn1nc(-c2ccc(Cl)cc2)ccc1=O`: the cell number change was -6.38%. Further, the concentration at half-maximal activity (AC50) under setting [2] is 4.11 µM [rising, single point].

As to `CO/N=C/C(=N\Nc1ccc(OC)cc1)C(=O)c1ccc(F)cc1`, the cell number change was -61.5%. In addition, the AC50 under setting [2] is 29.1 µM [falling, single point]. Under setting [1], the AC50 is 23.1 µM [falling, single point].

`O=C(CSc1nnc(SCc2ccccc2Cl)s1)N/N=C/c1c[nH]c2ccccc12`: the cell number change was -36.3%. Further, under setting [2], the AC50 was 25.9 µM [falling, single point]. In addition, under setting [1], the AC50 is 14.6 µM [falling, single point].

Take `Cc1n[nH]c(=O)c2c(NC(=O)COC(=O)Cc3ccc(Cl)cc3Cl)oc(C)c12`: the cell number change is 2.55%.

For the compound `C=CCOC(=O)C1=C(C)NC(SCC)=C(C#N)C1c1ccc(Cl)cc1` (stereo not drawn), the cell number change was -38.7%. The half-maximal activity concentration (AC50) under setting [2] was 20.6 µM [falling, single point].

`COc1ccc(C(=O)[C@@H]2CC[C@](C)(C(=O)O)C2(C)C)cc1`: the cell number change is -56.4%. Further, under setting [2], the AC50 is 16.4 µM [falling, partial curve]. Further, the AC50 under setting [1] was 16.4 µM [falling, partial curve].

As usually defined, the AC50 is the concentration giving half of the maximal activity seen. The low end stands for activity at low concentration, the high end for activity only at high concentration.
